The target of the test is wild-type desmoplakin (DSP), fused to FLAG or to GFP (human) (UniProt P15924). The experiment in a line: co-IP; DSP-WT:FLAG precipitated with magnetic beads coated with monoclonal anti-FLAG M2 from lysate (mild lysis buffer) of co-transfected cells, 48 h after transfection; immunoblot.

Sequences of proteins named here, by UniProt entry; tags and fusion partners are left off. A change or cut given only in a name is not applied to a line headed by its entry. A line that says so, or that is headed by a name, gives the form on record, which may keep a tag or linker.
UniProt P15924: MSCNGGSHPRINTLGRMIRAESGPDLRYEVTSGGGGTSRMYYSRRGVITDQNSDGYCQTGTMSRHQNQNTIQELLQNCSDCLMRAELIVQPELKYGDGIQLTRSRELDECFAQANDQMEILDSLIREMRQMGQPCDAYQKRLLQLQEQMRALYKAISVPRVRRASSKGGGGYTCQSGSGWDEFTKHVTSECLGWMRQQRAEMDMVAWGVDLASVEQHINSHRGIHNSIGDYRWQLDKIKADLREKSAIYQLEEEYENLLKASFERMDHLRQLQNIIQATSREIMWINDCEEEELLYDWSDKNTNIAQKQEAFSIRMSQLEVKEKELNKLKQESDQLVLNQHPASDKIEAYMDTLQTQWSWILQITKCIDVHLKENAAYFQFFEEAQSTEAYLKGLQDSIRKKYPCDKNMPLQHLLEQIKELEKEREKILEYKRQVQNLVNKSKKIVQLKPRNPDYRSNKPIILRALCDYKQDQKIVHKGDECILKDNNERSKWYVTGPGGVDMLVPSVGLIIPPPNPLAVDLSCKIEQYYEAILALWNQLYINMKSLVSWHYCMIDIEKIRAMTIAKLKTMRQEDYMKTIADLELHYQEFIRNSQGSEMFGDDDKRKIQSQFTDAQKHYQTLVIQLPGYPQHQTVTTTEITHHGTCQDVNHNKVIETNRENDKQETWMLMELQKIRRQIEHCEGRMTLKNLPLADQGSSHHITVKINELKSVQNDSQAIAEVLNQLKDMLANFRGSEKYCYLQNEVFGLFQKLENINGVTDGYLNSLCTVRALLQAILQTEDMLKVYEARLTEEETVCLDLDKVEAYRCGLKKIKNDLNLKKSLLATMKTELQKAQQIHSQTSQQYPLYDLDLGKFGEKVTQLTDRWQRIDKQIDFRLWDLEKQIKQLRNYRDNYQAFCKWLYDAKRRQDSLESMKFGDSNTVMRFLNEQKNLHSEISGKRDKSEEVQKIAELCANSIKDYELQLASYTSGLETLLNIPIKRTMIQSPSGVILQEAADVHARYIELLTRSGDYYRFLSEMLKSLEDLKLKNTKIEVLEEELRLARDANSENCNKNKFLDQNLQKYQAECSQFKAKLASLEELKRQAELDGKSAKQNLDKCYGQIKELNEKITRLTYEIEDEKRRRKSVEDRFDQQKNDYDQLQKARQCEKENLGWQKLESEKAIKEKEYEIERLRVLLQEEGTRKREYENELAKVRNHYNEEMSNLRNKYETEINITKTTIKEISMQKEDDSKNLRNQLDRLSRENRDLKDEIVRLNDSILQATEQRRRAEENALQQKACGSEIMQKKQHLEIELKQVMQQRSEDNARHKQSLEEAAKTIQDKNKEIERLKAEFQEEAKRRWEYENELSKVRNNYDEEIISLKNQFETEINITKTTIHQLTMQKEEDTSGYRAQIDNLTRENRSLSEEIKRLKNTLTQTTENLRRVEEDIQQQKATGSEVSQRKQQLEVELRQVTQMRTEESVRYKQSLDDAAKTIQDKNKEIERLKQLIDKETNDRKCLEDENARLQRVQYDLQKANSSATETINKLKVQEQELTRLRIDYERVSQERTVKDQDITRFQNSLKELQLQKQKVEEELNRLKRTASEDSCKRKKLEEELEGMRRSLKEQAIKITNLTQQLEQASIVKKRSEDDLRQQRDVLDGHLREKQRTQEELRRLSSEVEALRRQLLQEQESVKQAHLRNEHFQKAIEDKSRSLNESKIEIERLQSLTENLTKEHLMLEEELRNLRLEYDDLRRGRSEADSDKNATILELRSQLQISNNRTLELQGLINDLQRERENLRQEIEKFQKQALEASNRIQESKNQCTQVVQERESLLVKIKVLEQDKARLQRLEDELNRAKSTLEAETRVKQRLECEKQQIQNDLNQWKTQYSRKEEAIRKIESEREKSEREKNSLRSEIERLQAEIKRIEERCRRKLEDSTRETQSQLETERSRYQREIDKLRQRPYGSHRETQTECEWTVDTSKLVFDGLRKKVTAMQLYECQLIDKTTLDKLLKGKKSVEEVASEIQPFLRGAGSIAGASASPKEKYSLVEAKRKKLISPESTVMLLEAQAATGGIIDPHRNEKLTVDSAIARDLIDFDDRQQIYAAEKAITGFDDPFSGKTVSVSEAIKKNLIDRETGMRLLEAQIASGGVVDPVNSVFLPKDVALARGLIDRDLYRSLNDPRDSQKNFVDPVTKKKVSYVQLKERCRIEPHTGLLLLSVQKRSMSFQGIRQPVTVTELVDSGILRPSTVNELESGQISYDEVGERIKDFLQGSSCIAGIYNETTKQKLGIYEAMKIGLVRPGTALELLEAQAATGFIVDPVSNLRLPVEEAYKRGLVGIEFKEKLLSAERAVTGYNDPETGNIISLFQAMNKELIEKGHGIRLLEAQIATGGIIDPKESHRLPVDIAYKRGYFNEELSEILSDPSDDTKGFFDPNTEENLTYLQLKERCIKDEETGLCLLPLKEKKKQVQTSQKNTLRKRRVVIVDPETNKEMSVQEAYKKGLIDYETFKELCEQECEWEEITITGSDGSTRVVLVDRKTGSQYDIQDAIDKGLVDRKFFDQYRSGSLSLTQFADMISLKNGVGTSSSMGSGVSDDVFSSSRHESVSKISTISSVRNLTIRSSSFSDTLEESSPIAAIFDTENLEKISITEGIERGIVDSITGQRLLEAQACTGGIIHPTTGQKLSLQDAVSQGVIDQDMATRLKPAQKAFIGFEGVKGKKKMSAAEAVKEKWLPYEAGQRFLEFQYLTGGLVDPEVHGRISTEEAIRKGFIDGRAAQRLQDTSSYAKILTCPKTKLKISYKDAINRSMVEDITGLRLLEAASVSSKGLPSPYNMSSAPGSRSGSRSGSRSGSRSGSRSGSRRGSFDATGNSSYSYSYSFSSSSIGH
mutant desmoplakin p.Tyr1188His fused to GFP (P15924, form named): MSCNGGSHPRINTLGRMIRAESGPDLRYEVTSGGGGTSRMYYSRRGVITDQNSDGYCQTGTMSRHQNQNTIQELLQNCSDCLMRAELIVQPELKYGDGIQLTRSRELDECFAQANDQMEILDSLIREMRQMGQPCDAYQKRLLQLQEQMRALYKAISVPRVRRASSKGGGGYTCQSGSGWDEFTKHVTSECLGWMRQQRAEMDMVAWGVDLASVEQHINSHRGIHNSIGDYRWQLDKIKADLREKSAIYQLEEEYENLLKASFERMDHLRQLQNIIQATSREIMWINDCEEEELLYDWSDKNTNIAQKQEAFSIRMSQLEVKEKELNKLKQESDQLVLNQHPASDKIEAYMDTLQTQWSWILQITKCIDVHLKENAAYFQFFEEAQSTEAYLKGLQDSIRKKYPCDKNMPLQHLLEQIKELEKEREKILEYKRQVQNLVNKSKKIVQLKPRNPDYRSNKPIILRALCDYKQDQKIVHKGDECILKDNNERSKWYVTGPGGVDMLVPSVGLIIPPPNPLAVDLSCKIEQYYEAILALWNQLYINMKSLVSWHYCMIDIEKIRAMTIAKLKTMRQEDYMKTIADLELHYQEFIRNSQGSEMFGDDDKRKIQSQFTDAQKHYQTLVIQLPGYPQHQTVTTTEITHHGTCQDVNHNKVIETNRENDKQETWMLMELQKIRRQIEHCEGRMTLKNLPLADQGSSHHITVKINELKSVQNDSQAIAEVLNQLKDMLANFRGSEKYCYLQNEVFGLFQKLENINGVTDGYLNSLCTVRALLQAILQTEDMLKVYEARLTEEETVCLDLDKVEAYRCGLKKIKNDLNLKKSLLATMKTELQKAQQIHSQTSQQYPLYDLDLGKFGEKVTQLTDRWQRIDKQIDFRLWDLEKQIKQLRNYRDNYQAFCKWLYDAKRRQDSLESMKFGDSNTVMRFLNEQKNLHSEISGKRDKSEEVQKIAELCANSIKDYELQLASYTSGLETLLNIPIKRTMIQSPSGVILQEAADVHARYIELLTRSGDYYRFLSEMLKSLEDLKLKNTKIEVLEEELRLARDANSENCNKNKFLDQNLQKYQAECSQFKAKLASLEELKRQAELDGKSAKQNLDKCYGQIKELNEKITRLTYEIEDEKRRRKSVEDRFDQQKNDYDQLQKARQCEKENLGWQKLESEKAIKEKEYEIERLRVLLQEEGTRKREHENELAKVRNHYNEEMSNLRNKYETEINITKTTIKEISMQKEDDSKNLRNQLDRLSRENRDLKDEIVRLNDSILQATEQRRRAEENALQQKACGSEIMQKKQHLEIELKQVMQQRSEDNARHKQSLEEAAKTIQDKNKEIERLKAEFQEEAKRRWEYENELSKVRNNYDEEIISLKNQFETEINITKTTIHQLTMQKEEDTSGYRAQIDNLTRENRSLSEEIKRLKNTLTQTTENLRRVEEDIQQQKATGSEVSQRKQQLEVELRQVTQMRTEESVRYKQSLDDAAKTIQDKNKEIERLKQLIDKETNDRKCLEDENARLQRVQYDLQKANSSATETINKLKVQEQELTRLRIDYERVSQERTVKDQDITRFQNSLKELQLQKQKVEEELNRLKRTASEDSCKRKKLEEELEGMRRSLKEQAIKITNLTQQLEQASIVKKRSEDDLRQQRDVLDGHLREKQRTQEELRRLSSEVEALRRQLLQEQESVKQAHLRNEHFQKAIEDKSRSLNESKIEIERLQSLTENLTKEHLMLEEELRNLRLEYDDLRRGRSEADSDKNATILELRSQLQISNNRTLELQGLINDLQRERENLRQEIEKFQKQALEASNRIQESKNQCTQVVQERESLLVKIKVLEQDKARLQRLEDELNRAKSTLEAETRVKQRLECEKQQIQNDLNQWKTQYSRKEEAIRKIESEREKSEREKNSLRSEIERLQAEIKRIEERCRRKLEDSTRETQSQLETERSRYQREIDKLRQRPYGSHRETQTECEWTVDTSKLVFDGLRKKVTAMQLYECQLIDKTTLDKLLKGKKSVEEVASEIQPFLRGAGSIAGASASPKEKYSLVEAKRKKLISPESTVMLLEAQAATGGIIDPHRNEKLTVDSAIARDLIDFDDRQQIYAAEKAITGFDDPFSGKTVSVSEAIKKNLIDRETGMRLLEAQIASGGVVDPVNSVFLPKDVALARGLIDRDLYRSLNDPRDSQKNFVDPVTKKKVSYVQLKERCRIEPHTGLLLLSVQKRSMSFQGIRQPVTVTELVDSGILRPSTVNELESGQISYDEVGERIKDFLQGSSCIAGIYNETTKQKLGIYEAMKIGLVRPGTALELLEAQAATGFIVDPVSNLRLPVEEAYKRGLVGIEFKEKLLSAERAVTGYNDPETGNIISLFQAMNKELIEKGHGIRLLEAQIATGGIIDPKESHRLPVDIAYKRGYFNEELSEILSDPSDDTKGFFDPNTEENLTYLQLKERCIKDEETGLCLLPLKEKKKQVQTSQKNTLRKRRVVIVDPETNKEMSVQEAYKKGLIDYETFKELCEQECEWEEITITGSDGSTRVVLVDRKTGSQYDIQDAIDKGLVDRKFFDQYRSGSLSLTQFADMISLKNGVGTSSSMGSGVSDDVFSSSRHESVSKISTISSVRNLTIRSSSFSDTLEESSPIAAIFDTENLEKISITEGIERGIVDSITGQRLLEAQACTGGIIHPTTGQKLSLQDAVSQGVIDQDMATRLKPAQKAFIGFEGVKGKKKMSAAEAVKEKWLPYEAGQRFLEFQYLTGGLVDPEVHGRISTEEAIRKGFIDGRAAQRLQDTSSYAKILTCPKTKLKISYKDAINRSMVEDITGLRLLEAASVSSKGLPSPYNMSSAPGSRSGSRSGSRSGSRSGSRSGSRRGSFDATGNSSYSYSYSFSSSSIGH

No constants are given. Whether binding was seen depends on the method and setting. In cells and extracts the contact can be indirect. Some binding calls cover weakened binding; strength is not graded here.

Consider “mutant desmoplakin p.Tyr1188His fused to GFP (from UniProt P15924 1-2871)”, for which the binding entry is reported as “binds”.
Under “wild-type desmoplakin (DSP), fused to FLAG or to GFP (from UniProt P15924 1-2871)” stands “binds”.

The values are drawn from PMC10031305.
